Paper doi:10.1101/646224
These are yes or no findings as the source states them, for the method shown. In cells and extracts the contact can be indirect. Some results given as binding are weak or reduced against the parent protein; the word gives no strength.

Chains of the proteins cited; added tags and fusions are not shown.
UniProt Q5SRE5: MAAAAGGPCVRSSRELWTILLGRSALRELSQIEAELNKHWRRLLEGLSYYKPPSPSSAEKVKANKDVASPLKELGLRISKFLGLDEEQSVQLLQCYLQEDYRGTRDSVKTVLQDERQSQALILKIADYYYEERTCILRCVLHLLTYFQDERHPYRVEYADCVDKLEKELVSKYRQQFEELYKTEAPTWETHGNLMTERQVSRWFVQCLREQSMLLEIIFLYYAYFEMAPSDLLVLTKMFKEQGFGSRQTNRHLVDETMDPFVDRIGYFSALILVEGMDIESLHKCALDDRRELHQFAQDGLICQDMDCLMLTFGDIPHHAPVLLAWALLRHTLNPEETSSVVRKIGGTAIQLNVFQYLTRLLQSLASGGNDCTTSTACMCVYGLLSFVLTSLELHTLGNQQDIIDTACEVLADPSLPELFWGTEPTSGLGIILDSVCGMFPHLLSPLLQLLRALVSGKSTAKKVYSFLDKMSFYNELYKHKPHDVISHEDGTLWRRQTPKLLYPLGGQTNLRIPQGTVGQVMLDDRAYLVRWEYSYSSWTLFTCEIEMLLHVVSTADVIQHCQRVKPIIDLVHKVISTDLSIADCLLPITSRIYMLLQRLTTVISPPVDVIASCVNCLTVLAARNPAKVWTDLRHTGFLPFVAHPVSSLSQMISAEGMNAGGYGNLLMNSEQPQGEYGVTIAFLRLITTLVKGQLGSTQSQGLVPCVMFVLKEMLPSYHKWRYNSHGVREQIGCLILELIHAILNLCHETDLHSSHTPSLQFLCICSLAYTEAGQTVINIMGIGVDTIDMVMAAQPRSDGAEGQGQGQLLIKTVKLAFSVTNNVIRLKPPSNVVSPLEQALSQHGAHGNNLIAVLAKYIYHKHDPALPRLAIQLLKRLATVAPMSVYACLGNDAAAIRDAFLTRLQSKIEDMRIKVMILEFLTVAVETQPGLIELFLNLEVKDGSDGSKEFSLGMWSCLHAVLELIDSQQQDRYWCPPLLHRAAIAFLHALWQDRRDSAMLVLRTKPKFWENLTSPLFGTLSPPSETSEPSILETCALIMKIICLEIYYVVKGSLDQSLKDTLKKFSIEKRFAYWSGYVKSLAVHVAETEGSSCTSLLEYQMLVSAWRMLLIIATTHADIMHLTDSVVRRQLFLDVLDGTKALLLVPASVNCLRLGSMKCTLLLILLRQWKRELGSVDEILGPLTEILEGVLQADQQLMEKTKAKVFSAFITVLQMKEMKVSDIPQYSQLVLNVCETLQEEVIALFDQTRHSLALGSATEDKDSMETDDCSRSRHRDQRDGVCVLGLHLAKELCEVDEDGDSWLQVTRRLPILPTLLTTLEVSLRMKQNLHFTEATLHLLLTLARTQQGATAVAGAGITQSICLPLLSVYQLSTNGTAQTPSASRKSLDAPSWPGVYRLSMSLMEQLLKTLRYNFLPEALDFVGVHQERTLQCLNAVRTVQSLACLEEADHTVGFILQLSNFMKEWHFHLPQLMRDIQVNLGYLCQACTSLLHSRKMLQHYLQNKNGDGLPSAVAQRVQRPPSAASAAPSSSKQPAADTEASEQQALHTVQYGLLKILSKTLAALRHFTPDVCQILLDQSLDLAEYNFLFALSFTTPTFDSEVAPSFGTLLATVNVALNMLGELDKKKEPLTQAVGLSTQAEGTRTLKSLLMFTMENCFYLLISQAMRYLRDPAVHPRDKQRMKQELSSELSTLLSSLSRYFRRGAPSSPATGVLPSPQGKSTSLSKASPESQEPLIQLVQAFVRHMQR
UniProt Q92621: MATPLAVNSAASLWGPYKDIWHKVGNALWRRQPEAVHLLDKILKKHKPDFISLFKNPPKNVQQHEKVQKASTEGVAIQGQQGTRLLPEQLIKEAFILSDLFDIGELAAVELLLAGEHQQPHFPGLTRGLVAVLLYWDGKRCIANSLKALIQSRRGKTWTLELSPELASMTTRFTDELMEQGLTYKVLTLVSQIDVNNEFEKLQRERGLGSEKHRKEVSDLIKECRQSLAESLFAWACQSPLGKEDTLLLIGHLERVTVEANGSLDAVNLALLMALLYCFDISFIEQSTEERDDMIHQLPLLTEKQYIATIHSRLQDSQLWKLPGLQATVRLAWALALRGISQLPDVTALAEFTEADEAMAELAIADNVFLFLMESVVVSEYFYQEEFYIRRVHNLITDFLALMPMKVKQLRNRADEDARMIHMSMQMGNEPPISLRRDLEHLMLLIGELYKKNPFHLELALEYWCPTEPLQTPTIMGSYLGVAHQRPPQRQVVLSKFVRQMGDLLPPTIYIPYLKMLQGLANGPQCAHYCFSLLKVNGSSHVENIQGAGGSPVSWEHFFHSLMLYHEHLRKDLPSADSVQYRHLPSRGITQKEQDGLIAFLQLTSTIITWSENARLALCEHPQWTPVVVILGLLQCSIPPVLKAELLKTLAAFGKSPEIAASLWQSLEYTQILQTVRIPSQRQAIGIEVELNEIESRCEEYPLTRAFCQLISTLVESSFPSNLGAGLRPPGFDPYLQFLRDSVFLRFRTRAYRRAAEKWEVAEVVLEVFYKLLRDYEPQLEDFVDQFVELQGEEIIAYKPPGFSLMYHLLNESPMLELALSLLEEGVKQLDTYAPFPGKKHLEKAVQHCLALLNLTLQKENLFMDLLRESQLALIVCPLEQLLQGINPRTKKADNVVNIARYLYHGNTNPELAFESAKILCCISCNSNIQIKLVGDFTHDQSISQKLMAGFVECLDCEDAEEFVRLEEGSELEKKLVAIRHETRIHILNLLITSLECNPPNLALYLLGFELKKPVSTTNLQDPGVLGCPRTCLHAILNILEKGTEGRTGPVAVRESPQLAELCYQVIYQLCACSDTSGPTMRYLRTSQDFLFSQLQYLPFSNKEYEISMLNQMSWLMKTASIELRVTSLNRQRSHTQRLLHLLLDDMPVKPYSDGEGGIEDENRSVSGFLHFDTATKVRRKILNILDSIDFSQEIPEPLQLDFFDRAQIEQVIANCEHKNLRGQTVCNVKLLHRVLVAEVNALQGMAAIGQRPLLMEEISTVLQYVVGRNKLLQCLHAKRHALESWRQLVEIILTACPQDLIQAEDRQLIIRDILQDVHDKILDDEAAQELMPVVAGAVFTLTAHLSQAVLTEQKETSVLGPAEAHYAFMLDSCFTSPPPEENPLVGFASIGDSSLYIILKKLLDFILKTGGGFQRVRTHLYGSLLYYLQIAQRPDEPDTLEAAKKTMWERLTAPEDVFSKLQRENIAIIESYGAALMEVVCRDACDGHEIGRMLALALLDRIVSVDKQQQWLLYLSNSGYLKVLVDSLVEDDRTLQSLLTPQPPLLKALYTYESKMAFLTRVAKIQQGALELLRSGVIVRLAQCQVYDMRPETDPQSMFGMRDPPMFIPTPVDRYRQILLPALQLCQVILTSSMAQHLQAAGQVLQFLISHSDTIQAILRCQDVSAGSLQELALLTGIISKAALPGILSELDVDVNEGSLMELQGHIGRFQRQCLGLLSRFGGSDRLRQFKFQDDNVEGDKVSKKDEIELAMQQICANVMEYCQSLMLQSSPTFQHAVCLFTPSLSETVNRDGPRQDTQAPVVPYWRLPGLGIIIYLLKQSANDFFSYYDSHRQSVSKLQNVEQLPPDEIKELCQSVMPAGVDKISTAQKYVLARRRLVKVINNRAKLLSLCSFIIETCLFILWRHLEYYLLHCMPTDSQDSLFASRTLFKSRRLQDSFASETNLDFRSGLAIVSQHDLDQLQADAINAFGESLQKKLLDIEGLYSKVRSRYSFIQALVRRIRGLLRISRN

B1: Nup93 (protein, UniProt Q8N1F7 1-819)
chain: MDTEGFGELLQQAEQLAAETEGISELPHVERNLQEIQQAGERLRSRTLTRTSQETADVKASVLLGSRGLDISHISQRLESLSAATTFEPLEPVKDTDIQGFLKNEKDNALLSAIEESRKRTFGMAEEYHRESMLVEWEQVKQRILHTLLASGEDALDFTQESEPSYISDVGPPGRSSLDNIEMAYARQIYIYNEKIVNGHLQPNLVDLCASVAELDDKSISDMWTMVKQMTDVLLTPATDALKNRSSVEVRMEFVRQALAYLEQSYKNYTLVTVFGNLHQAQLGGVPGTYQLVRSFLNIKLPAPLPGLQDGEVEGHPVWALIYYCMRCGDLLAASQVVNRAQHQLGEFKTWFQEYMNSKDRRLSPATENKLRLHYRRALRNNTDPYKRAVYCIIGRCDVTDNQSEVADKTEDYLWLKLNQVCFDDDGTSSPQDRLTLSQFQKQLLEDYGESHFTVNQQPFLYFQVLFLTAQFEAAVAFLFRMERLRCHAVHVALVLFELKLLLKSSGQSAQLLSHEPGDPPCLRRLNFVRLLMLYTRKFESTDPREALQYFYFLRDEKDSQGENMFLRCVSELVIESREFDMILGKLENDGSRKPGVIDKFTSDTKPIINKVASVAENKGLFEEAAKLYDLAKNADKVLELMNKLLSPVVPQISAPQSNKERLKNMALSIAERYRAQGISANKFVDSTFYLLLDLITFFDEYHSGHIDRAFDIIERLKLVPLNQESVEERVAAFRNFSDEIRHNLSEVLLATMNILFTQFKRLKGTSPSSSSRPQRVIEDRDSQLRSQARTLITFAGMIPYRTSGDTNARLVQMEVLMN
B2: CTCF (protein, UniProt P49711 1-727)
chain: MEGDAVEAIVEESETFIKGKERKTYQRRREGGQEEDACHLPQNQTDGGEVVQDVNSSVQMVMMEQLDPTLLQMKTEVMEGTVAPEAEAAVDDTQIITLQVVNMEEQPINIGELQLVQVPVPVTVPVATTSVEELQGAYENEVSKEGLAESEPMICHTLPLPEGFQVVKVGANGEVETLEQGELPPQEDPSWQKDPDYQPPAKKTKKTKKSKLRYTEEGKDVDVSVYDFEEEQQEGLLSEVNAEKVVGNMKPPKPTKIKKKGVKKTFQCELCSYTCPRRSNLDRHMKSHTDERPHKCHLCGRAFRTVTLLRNHLNTHTGTRPHKCPDCDMAFVTSGELVRHRRYKHTHEKPFKCSMCDYASVEVSKLKRHIRSHTGERPFQCSLCSYASRDTYKLKRHMRTHSGEKPYECYICHARFTQSGTMKMHILQKHTENVAKFHCPHCDTVIARKSDLGVHLRKQHSYIEQGKKCRYCDAVFHERYALIQHQKSHKNEKRFKCDQCDYACRQERHMIMHKRTHTGEKPYACSHCDKTFRQKQLLDMHFKRYHDPNFVPAAFVCSKCGKTFTRRNTMARHADNCAGPDGVEGENGGETKKSKRGRKRKMRSKKEDSSDSENAEPDLDDNEDEEEPAVEIEPEPEPQPVTPAPPPAKKRRGRPPGRTNQPKQNQPTAIIQVEDQNTGAIENIIVEVKKEPDAEPAEGEEEEAQPAATDAPNGDLTPEMILSMMDR

Target: Nup188 (human (endogenous in NT2/D1)) (UniProt Q5SRE5)
Assay: co-IP

binding	Molecule
no binding	Nup205 (from UniProt Q92621 1-2012)
binds	B1
no binding	B2
